# Results published in the supplement of paper PMC12067093, “Discovery and optimisation of a covalent ligand for TRIM25 and its application to targeted protein ubiquitination” (Chemical Science, 2025).
# The other results are listed elsewhere or left out.
# Compound: CC1Cc2ccccc2N1C(=O)C1CCCN(C1)C(=O)CCl (mixture of isomers) [TRIM25 ligand 11 (diastereomer mixture)]
# Assay: probe-labelled cysteine peptide fold change vs DMSO (competition) (log2 fold change); higher = less target engagement (more negative = stronger competition)
# Conditions: THP-1, incubation time: 4 h
# 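Also: competitive chemoproteomic profiling in live THP-1 cells with an iodoacetamide desthiobiotin (IA-DTB) probe, comparing probe-labelled peptide intensities in compound-treated cells against DMSO-treated controls.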
Target,probe-labelled cysteine peptide fold change (10 µM),probe-labelled cysteine peptide fold change (50 µM)
PPP2R2D_Q66LE6_245_SFNIVDIKPANMEELTEVITAAEFHPHQCNVFVYSSSK (UniProt Q66LE6),-0.185,-0.0846
PPP1R21_Q6ZMI0_468_LITTNDCILSSVVALTNGAGK (UniProt Q6ZMI0),0.0696,-0.0235
PPM1G_O15355_13_CSGDGVGAPR (UniProt O15355),-0.113,-0.118
PRDX1_Q06830_83_LNCQVIGASVDSHFCHLAWVNTPK (UniProt Q06830),0.095,0.129
PPP1R8_Q12972_16_AAAANSGSSLPLFDCPTWAGKPPPGLHLDVVKGDK (UniProt Q12972),-0.117,-0.26
PPP2R1B_P30154_516_MTTLFCINALSEACGQEITTK (UniProt P30154),0.143,0.0485
PPP1R3G_B7ZBB8_76_EEAAPQEQEELLECR (UniProt B7ZBB8),-0.149,-0.199
PRDX4_Q13162_51_TREEECHFYAGGQVYPGEASR (UniProt Q13162),-0.0678,-0.034
PPP4R2_Q9NY27_105_LCELLTDPR (UniProt Q9NY27),0.118,0.0827
PPP1R21_Q6ZMI0_351_TFSEHLTSYICFLR (UniProt Q6ZMI0),0.201,0.0173
PRC1_O43663_322_QAFAPFCAEDYTESLLQLHDAEIVR (UniProt O43663),0.305,0.0868
PRDX1_Q06830_71_LNCQVIGASVDSHFCHLAWVNTPK (UniProt Q06830),0.0911,-0.104
PPP1R3D_O95685_41_ACRPPGSPGR (UniProt O95685),0.000234,-0.127

# Two entries from above, with tabs.
Target	probe-labelled cysteine peptide fold change (10 µM)	probe-labelled cysteine peptide fold change (50 µM)
PRDX1_Q06830_83_LNCQVIGASVDSHFCHLAWVNTPK (UniProt Q06830)	0.095	0.129
PPP1R8_Q12972_16_AAAANSGSSLPLFDCPTWAGKPPPGLHLDVVKGDK (UniProt Q12972)	-0.117	-0.26
